According to PMC8644457:
Results are given in words; binding and its absence hold for the method and conditions named. Some binding calls cover weakened binding; strength is not graded here. Tags and fused reporters may be left off the sequences shown.

T1: SDI1 fused to the Gal4 DNA-binding domain (Arabidopsis thaliana) (UniProt Q8GXU5)
T1 sequence: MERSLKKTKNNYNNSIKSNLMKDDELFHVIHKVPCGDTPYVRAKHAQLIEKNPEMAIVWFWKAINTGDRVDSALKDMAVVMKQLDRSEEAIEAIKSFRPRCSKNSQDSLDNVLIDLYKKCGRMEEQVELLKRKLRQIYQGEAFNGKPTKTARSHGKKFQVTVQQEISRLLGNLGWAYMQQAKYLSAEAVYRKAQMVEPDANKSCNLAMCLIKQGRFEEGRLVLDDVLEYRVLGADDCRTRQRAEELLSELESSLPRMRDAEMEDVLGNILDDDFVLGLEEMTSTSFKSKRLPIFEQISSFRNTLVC

T2: MYB28 fused to the Gal4 DNA-binding domain (Arabidopsis thaliana) (UniProt Q9SPG2)
T2 sequence: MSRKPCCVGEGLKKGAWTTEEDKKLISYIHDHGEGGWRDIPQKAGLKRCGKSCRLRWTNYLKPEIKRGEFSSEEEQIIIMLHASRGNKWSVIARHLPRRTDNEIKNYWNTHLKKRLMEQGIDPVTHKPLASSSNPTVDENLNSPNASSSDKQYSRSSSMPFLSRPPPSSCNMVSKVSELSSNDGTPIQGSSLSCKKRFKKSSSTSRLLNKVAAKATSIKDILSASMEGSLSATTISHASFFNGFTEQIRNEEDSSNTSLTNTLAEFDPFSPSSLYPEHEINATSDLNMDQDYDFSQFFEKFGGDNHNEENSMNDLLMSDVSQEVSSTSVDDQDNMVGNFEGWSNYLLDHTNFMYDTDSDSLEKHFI


What was measured:
[1] = molecular target: T1, SDI1 fused to the Gal4 DNA-binding domain (Arabidopsis thaliana); experiment: yeast three-hybrid; pBridge SDI1BD-MYB28 (SDI1 fused to Gal4 DNA-BD, MYB28 as untagged bridging protein) co-transformed with MYC2AD prey; dropout plates (DDO, TDO, QDO) with or without X-α-Gal and Aureobasidin
[2] = molecular target: T2, MYB28 fused to the Gal4 DNA-binding domain (Arabidopsis thaliana); experiment: yeast three-hybrid; pBridge MYB28BD-SDI (MYB28 fused to Gal4 DNA-BD, SDI1 as untagged bridging protein) co-transformed with MYC2AD prey; dropout plates (DDO, TDO, QDO) with or without X-α-Gal and Aureobasidin

| binding [1] | binding [2] | Binder |
| --- | --- | --- |
| binds |  | MYB28 expressed as the bridging protein (no binding or activation domain) (protein, UniProt Q9SPG2 1-366) MSRKPCCVGEGLKKGAWTTEEDKKLISYIHDHGEGGWRDIPQKAGLKRCGKSCRLRWTNYLKPEIKRGEFSSEEEQIIIMLHASRGNKWSVIARHLPRRTDNEIKNYWNTHLKKRLMEQGIDPVTHKPLASSSNPTVDENLNSPNASSSDKQYSRSSSMPFLSRPPPSSCNMVSKVSELSSNDGTPIQGSSLSCKKRFKKSSSTSRLLNKVAAKATSIKDILSASMEGSLSATTISHASFFNGFTEQIRNEEDSSNTSLTNTLAEFDPFSPSSLYPEHEINATSDLNMDQDYDFSQFFEKFGGDNHNEENSMNDLLMSDVSQEVSSTSVDDQDNMVGNFEGWSNYLLDHTNFMYDTDSDSLEKHFI |
|  | binds | SDI1 expressed as the bridging protein (no binding or activation domain) (protein, UniProt Q8GXU5 1-306) MERSLKKTKNNYNNSIKSNLMKDDELFHVIHKVPCGDTPYVRAKHAQLIEKNPEMAIVWFWKAINTGDRVDSALKDMAVVMKQLDRSEEAIEAIKSFRPRCSKNSQDSLDNVLIDLYKKCGRMEEQVELLKRKLRQIYQGEAFNGKPTKTARSHGKKFQVTVQQEISRLLGNLGWAYMQQAKYLSAEAVYRKAQMVEPDANKSCNLAMCLIKQGRFEEGRLVLDDVLEYRVLGADDCRTRQRAEELLSELESSLPRMRDAEMEDVLGNILDDDFVLGLEEMTSTSFKSKRLPIFEQISSFRNTLVC |
